This assay deals with α‐catenin tagged with the biotin ligase BirA at the N-terminus (human) (UniProt P35221). In words: proximity labelling; BioID in HLF cells with inducible BirA-α-catenin (1 µg/ml doxycycline 48 h, 50 µM biotin 24 h); biotinylated proteins collected on streptavidin magnetic beads and identified by mass spectrometry; empty BirA vector as control.

The chains behind the UniProt entries cited, without tags or fusion partners.
UniProt P35221: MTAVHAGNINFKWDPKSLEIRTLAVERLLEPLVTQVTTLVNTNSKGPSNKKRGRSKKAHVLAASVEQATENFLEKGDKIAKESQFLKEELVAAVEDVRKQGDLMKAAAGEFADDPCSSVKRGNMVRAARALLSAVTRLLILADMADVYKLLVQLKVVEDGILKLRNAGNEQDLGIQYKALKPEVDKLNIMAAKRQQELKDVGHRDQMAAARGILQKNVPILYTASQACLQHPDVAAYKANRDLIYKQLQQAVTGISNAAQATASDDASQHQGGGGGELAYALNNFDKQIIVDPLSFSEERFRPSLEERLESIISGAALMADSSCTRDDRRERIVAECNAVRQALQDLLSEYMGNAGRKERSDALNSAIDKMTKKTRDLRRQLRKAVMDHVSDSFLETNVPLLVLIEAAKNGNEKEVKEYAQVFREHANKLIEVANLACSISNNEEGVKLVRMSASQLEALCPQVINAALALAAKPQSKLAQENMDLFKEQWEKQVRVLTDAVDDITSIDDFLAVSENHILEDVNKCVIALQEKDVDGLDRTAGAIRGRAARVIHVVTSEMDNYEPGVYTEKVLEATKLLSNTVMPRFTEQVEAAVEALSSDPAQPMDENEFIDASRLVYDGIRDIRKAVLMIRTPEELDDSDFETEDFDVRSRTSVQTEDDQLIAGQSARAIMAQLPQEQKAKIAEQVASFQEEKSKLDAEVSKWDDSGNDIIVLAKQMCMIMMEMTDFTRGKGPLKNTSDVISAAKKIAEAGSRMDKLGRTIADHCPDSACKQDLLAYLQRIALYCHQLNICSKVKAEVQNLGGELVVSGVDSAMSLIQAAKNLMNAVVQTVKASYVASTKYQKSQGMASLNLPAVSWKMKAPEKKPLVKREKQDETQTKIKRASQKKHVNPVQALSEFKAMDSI
UniProt Q9NR12: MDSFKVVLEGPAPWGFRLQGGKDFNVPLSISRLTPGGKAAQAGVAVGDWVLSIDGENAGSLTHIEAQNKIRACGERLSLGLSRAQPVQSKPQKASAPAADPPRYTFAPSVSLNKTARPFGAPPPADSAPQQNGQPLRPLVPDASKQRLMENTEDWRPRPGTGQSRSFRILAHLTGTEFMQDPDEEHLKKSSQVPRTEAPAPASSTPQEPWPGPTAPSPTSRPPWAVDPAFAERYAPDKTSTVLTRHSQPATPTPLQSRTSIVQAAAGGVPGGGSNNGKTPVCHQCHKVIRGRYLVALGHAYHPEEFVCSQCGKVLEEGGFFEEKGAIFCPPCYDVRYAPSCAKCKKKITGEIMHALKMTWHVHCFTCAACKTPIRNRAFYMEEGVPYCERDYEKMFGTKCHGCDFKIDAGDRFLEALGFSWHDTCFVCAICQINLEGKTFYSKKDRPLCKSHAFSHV
UniProt O14639: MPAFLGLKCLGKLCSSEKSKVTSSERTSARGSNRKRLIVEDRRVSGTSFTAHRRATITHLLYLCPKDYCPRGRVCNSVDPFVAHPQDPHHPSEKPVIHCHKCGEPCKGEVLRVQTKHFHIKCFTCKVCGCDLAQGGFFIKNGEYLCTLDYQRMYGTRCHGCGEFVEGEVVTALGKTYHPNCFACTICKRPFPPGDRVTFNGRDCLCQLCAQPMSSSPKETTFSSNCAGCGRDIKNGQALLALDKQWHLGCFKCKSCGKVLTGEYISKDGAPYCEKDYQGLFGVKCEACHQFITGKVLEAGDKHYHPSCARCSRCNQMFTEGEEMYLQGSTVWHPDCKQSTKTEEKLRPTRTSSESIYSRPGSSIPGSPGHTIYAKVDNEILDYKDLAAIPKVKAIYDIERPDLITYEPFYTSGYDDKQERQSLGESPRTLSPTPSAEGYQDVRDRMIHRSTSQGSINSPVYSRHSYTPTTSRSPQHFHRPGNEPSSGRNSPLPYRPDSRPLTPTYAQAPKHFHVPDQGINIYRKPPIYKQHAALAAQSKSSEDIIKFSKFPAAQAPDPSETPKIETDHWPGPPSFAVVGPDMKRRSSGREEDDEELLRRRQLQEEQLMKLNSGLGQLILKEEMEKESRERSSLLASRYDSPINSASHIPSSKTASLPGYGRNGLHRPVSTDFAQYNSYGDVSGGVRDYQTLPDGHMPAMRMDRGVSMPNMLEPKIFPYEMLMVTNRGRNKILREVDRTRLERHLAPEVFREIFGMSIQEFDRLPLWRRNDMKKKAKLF
UniProt Q14160: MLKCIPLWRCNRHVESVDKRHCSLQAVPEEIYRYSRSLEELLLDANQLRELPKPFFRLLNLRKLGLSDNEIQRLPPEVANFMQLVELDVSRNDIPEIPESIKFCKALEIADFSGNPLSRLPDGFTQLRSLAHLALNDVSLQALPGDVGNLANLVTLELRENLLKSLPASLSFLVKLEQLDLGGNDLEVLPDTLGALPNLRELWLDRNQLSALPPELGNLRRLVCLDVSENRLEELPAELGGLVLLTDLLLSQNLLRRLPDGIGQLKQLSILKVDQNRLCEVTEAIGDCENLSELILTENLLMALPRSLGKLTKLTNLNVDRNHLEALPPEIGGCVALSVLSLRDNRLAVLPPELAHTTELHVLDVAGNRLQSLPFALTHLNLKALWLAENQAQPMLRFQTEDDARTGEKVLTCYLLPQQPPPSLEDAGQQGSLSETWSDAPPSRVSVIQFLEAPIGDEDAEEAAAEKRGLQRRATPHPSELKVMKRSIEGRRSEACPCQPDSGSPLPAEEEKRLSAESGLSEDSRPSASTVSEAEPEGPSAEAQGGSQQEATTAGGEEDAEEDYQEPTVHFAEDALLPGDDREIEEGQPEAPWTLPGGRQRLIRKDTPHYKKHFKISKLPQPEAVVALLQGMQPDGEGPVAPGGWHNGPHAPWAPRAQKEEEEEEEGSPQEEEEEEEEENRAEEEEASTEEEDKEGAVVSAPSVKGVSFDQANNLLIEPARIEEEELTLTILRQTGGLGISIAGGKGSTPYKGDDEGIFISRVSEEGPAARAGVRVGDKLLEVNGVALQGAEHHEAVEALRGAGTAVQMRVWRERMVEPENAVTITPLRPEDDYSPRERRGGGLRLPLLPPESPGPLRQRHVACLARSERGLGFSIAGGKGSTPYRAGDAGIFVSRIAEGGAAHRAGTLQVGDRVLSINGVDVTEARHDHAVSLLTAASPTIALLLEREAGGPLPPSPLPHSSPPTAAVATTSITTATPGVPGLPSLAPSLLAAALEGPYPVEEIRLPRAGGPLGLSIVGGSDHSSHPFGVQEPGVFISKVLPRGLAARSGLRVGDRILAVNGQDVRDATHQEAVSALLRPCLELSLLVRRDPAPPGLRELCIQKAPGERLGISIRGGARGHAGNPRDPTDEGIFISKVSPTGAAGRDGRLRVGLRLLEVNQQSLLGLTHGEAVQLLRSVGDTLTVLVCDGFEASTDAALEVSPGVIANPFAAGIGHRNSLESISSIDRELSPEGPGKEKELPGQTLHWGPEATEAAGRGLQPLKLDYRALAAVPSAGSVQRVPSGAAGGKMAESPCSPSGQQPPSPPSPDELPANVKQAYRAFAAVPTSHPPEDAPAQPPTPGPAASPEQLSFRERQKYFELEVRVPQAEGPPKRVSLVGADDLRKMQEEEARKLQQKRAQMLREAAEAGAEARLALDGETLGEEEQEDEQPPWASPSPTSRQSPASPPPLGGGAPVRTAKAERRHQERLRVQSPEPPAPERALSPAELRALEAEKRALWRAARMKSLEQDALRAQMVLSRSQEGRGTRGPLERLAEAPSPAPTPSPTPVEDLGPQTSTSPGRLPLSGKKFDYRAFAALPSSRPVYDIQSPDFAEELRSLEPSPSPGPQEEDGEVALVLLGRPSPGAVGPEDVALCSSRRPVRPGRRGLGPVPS

Results are given in words; binding and its absence hold for the method and conditions named. In cells and extracts the contact can be indirect. These calls come from enrichment with a bait or labelling near it, and not all partners need be listed.

For the molecule “PDZ and LIM domain 7 (from UniProt Q9NR12 1-457)”, the binding entry is listed as “binds”.

Turning to limatin (from UniProt O14639 1-778), the binding entry was “binds”.

As for Scribble (from UniProt Q14160 1-1655), the binding entry was “binds”.

B1: δ-catenin (protein, UniProt O60716 1-968)
chain: MDDSEVESTASILASVKEQEAQFEKLTRALEEERRHVSAQLERVRVSPQDANPLMANGTLTRRHQNGRFVGDADLERQKFSDLKLNGPQDHSHLLYSTIPRMQEPGQIVETYTEEDPEGAMSVVSVETSDDGTTRRTETTVKKVVKTVTTRTVQPVAMGPDGLPVDASSVSNNYIQTLGRDFRKNGNGGPGPYVGQAGTATLPRNFHYPPDGYSRHYEDGYPGGSDNYGSLSRVTRIEERYRPSMEGYRAPSRQDVYGPQPQVRVGGSSVDLHRFHPEPYGLEDDQRSMGYDDLDYGMMSDYGTARRTGTPSDPRRRLRSYEDMIGEEVPSDQYYWAPLAQHERGSLASLDSLRKGGPPPPNWRQPELPEVIAMLGFRLDAVKSNAAAYLQHLCYRNDKVKTDVRKLKGIPVLVGLLDHPKKEVHLGACGALKNISFGRDQDNKIAIKNCDGVPALVRLLRKARDMDLTEVITGTLWNLSSHDSIKMEIVDHALHALTDEVIIPHSGWEREPNEDCKPRHIEWESVLTNTAGCLRNVSSERSEARRKLRECDGLVDALIFIVQAEIGQKDSDSKLVENCVCLLRNLSYQVHREIPQAERYQEAAPNVANNTGPHAASCFGAKKGKDEWFSRGKKPIEDPANDTVDFPKRTSPARGYELLFQPEVVRIYISLLKESKTPAILEASAGAIQNLCAGRWTYGRYIRSALRQEKALSAIADLLTNEHERVVKAASGALRNLAVDARNKELIGKHAIPNLVKNLPGGQQNSSWNFSEDTVISILNTINEVIAENLEAAKKLRETQGIEKLVLINKSGNRSEKEVRAAALVLQTIWGYKELRKPLEKEGWKKSDFQVNLNNASRSQSSHSYDDSTLPLIDRNQKSDKKPDREEIQMSNMGSNTKSLDNNYSTPNERGDHNRTLDRSGDLGDMEPLKGTTPLMQDEGQESLEEELDVLVLDDEGGQVSYPSMQKI
Consider B1, for which the binding entry is on record as “binds”.

B2: calmin (protein, UniProt Q96JQ2 1-1002)
chain: MAAHEWDWFQREELIGQISDIRVQNLQVERENVQKRTFTRWINLHLEKCNPPLEVKDLFVDIQDGKILMALLEVLSGRNLLHEYKSSSHRIFRLNNIAKALKFLEDSNVKLVSIDAAEIADGNPSLVLGLIWNIILFFQIKELTGNLSRNSPSSSLSPGSGGTDSDSSFPPTPTAERSVAISVKDQRKAIKALLAWVQRKTRKYGVAVQDFAGSWRSGLAFLAVIKAIDPSLVDMKQALENSTRENLEKAFSIAQDALHIPRLLEPEDIMVDTPDEQSIMTYVAQFLERFPELEAEDIFDSDKEVPIESTFVRIKETPSEQESKVFVLTENGERTYTVNHETSHPPPSKVFVCDKPESMKEFRLDGVSSHALSDSSTEFMHQIIDQVLQGGPGKTSDISEPSPESSILSSRKENGRSNSLPIKKTVHFEADTYKDPFCSKNLSLCFEGSPRVAKESLRQDGHVLAVEVAEEKEQKQESSKIPESSSDKVAGDIFLVEGTNNNSQSSSCNGALESTARHDEESHSLSPPGENTVMADSFQIKVNLMTVEALEEGDYFEAIPLKASKFNSDLIDFASTSQAFNKVPSPHETKPDEDAEAFENHAEKLGKRSIKSAHKKKDSPEPQVKMDKHEPHQDSGEEAEGCPSAPEETPVDKKPEVHEKAKRKSTRPHYEEEGEDDDLQGVGEELSSSPPSSCVSLETLGSHSEEGLDFKPSPPLSKVSVIPHDLFYFPHYEVPLAAVLEAYVEDPEDLKNEEMDLEEPEGYMPDLDSREEEADGSQSSSSSSVPGESLPSASDQVLYLSRGGVGTTPASEPAPLAPHEDHQQRETKENDPMDSHQSQESPNLENIANPLEENVTKESISSKKKEKRKHVDHVESSLFVAPGSVQSSDDLEEDSSDYSIPSRTSHSDSSIYLRRHTHRSSESDHFSYVQLRNAADLDDRRNRILTRKANSSGEAMSLGSHSPQSDSLTQLVQQPDMMYFILFLWLLVYCLLLFPQLDVSRL
Turning to B2, the binding result was “binds”.

B3: centrosomal protein 55 (protein, UniProt Q53EZ4 1-464)
chain: MSSRSTKDLIKSKWGSKPSNSKSETTLEKLKGEIAHLKTSVDEITSGKGKLTDKERHRLLEKIRVLEAEKEKNAYQLTEKDKEIQRLRDQLKARYSTTTLLEQLEETTREGERREQVLKALSEEKDVLKQQLSAATSRIAELESKTNTLRLSQTVAPNCFNSSINNIHEMEIQLKDALEKNQQWLVYDQQREVYVKGLLAKIFELEKKTETAAHSLPQQTKKPESEGYLQEEKQKCYNDLLASAKKDLEVERQTITQLSFELSEFRRKYEETQKEVHNLNQLLYSQRRADVQHLEDDRHKTEKIQKLREENDIARGKLEEEKKRSEELLSQVQFLYTSLLKQQEEQTRVALLEQQMQACTLDFENEKLDRQHVQHQLHVILKELRKARNQITQLESLKQLHEFAITEPLVTFQGETENREKVAASPKSPTAALNESLVECPKCNIQYPATEHRDLLVHVEYCSK
Turning to B3, the binding result is listed as “binds”.

B4: plakoglobin (protein, UniProt P14923 1-745)
chain: MEVMNLMEQPIKVTEWQQTYTYDSGIHSGANTCVPSVSSKGIMEEDEACGRQYTLKKTTTYTQGVPPSQGDLEYQMSTTARAKRVREAMCPGVSGEDSSLLLATQVEGQATNLQRLAEPSQLLKSAIVHLINYQDDAELATRALPELTKLLNDEDPVVVTKAAMIVNQLSKKEASRRALMGSPQLVAAVVRTMQNTSDLDTARCTTSILHNLSHHREGLLAIFKSGGIPALVRMLSSPVESVLFYAITTLHNLLLYQEGAKMAVRLADGLQKMVPLLNKNNPKFLAITTDCLQLLAYGNQESKLIILANGGPQALVQIMRNYSYEKLLWTTSRVLKVLSVCPSNKPAIVEAGGMQALGKHLTSNSPRLVQNCLWTLRNLSDVATKQEGLESVLKILVNQLSVDDVNVLTCATGTLSNLTCNNSKNKTLVTQNSGVEALIHAILRAGDKDDITEPAVCALRHLTSRHPEAEMAQNSVRLNYGIPAIVKLLNQPNQWPLVKATIGLIRNLALCPANHAPLQEAAVIPRLVQLLVKAHQDAQRHVAAGTQQPYTDGVRMEEIVEGCTGALHILARDPMNRMEIFRLNTIPLFVQLLYSSVENIQRVAAGVLCELAQDKEAADAIDAEGASAPLMELLHSRNEGTATYAAAVLFRISEDKNPDYRKRVSVELTNSLFKHDPAAWEAAQSMIPINEPYGDDMDATYRPMYSSDVPLDPLEMHMDMDGDYPIDTYSDGLRPPYPTADHMLA
Regarding B4, the binding entry is “binds”.

The values above are taken from PMC10304383.
